# Values from PubChem BioAssay AID743454 (Peter MacCallum Cancer Centre, 2014).
# Purpose: 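Knock-downs lowering viability or raising caspase 3/7 activity in vorinostat-treated resistant cells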 (primary screen)
# Cells: human HCT116-VR colon cancer cells, selected for vorinostat resistance
# Reagent: siRNA pool against human genes, 40 nM siRNA pool
# Timing: vorinostat for 24 h, read-out about 72 h after transfection
# Challenge: vorinostat at 2.5 µM final
# Read-out: 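Cell viability by CellTiter-Fluor and caspase 3/7 activity by luminescence, each scaled to mock wells per plate, duplicates averaged, then robust z-scored over all plates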
# Reading the numbers: viability robust z-score: higher = more viable cells than screen typical; caspase robust z-score: higher = more caspase 3/7 activity than screen typical
# Active means: 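Hits are knock-downs in viability class RV1/RV2 or caspase class CA1/CA2, excluding ones that killed cells in the no-drug cell-count arm; hits then retested with single siRNAs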
# Here is an unselected part of about 18,000 reagents. In the full data, 450 (2.5%) are marked active. 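Single biological run; no consistent viability z cut-off exists, so the class columns, not z-scores, define the calls.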
Target gene,viability hit class,caspase hit class,viability robust z-score,caspase robust z-score,call
IGFL1,no change,no change,0.1,-0.09,inactive
LRRC4B,no change,no change,1.45,2.06,inactive
COX7B2,no change,no change,1.12,-0.42,inactive
SLC39A7,no change,no change,-0.2,-0.56,inactive
PAXBP1,no change,no change,-2.02,-1.47,inactive
JPH1,no change,no change,-0.83,0.92,inactive
MAD2L1,no change,no change,-1.5,2.36,inactive
KCTD11,no change,no change,-0.68,3.83,inactive
NCR1,no change,no change,-0.37,0.88,inactive
CYP2J2,no change,no change,0.45,0.18,inactive
SIGLEC15,no change,no change,1.13,0.75,inactive
MDM2,no change,no change,0.73,-0.18,inactive
DOP1B,no change,no change,1.52,1.53,inactive
MNT,no change,no change,-1.37,2,inactive
AP3D1,no change,no change,-0.17,0.71,inactive
FERRY3,no change,no change,0.77,0.3,inactive
SPMIP2,no change,no change,0.73,-1.27,inactive
NEDD1,no change,no change,-0.58,3.45,inactive
DNMBP,no change,no change,-0.17,0.38,inactive
SH3BP2,no change,no change,0.88,0.64,inactive
KDELR2,no change,no change,0.32,0.04,inactive
PGBD2,no change,no change,-0.82,1.31,inactive
PLEKHB2,no change,no change,0.88,-0.76,inactive
INKA2,no change,no change,-0.81,4.5,inactive
TEX13A,no change,no change,-0.53,-0.72,inactive
PRKCB,no change,no change,-0.63,-0.19,inactive
SMNDC1,no change,no change,0.2,-0.32,inactive
FHL2,no change,no change,-0.38,0.37,inactive
VPS54,no change,no change,-1.64,0.95,inactive
PCDHGB6,no change,no change,0.02,-0.27,inactive
CLCN3,no change,no change,-0.28,-0.87,inactive
TRMT61B,no change,no change,-0.58,-0.84,inactive
CMKLR2,no change,no change,-1.61,0.61,inactive
CFAP20DC,no change,no change,1.46,-0.45,inactive
BRPF3,no change,no change,1.34,-0.29,inactive
CDC25C,RV2 (reduced viability),no change,-3.38,0.36,active
SPAG6,no change,no change,-1.47,1.75,inactive
VSIR,no change,no change,-1.31,-0.15,inactive
PAIP1,no change,no change,0.82,-0.78,inactive
ACSL5,no change,no change,-0.64,-1.14,inactive
APOBEC3C,no change,no change,-2.16,3.34,inactive
ZNF224,no change,no change,0.94,-0.82,inactive
KIF3B,no change,no change,-0.13,-1.15,inactive
PLEKHH3,no change,no change,-0.57,-0.3,inactive
SLC9A1,no change,no change,1.18,0.43,inactive
ZNF100,no change,no change,-0.12,-0.22,inactive
GEMIN6,no change,no change,0.19,-0.7,inactive
MFHAS1,no change,no change,-0.17,0.42,inactive
ZBTB14,no change,no change,0.82,-0.75,inactive
SPTSSA,no change,no change,-0.01,-0.32,inactive
IGF2,no change,no change,1.8,0.33,inactive
ORAI3,no change,no change,0.57,1.52,inactive
CXCL11,no change,no change,-0.01,-0.24,inactive
SYNGR4,no change,no change,-0.01,3.67,inactive
HNRNPD,no change,no change,-0.06,0.38,inactive
DNAJC3,no change,no change,0.03,1.55,inactive
PPT2,no change,no change,0.21,0.1,inactive

2 entries from above, set out differently:
Target gene	viability hit class	caspase hit class	viability robust z-score	caspase robust z-score	call
SMNDC1	no change	no change	0.2	-0.32	inactive
FHL2	no change	no change	-0.38	0.37	inactive
